The term IC50 denotes the concentration needed to halve the response being measured.

Sequences of proteins named here, by UniProt entry; tags and fusion partners are left off. Residues count along the entry.
UniProt P01138, 122-241: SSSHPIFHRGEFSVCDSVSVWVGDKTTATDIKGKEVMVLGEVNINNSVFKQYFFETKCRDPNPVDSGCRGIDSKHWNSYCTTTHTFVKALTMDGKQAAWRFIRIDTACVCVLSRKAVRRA
UniProt P34130, 81-210: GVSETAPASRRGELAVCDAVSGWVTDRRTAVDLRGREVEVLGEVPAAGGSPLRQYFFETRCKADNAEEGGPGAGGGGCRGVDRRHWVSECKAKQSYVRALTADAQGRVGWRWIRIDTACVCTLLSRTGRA
UniProt P23560, 129-247: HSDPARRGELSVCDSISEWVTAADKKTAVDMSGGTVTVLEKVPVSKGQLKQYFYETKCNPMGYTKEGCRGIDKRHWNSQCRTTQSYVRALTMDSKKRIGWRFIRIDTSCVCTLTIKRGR

The target in data set [1] is NGF (nerve growth factor) (Homo sapiens) (UniProt P01138). The experiment in a line: SPR. The note with it: 2'-F C and U, 2'-OH G, 2'-H (deoxy) A, purified recombinant protein, protein details: R&D Systems.
Data set [2] deals with T1, NT-3 (neurotrophin-3) (UniProt P20783).
T1 sequence (looked up, limits assumed): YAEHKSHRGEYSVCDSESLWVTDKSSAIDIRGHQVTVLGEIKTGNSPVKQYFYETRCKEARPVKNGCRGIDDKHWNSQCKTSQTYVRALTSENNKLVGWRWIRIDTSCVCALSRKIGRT
The experiment in a line: activity in cells. As to conditions: TF-1, purified recombinant protein, protein details: R&D Systems.

For data set [3], the target named is NT-4 (neurotrophin-4) (UniProt P34130). As to the kind of experiment: activity in cells. As to conditions: TF-1, purified recombinant protein, protein details: R&D Systems.
Data set [4] deals with BDNF (Homo sapiens) (UniProt P23560). As to the kind of experiment: activity in cells. The note with it: purified recombinant protein, protein details: R&D Systems.
In data set [5] the target is NT-4 (neurotrophin-4) (UniProt P34130). The experiment in a line: SPR. The note with it: 2'-F C/U, dA, 2'-OH G; scarcely bound; purified recombinant protein; protein details: R&D Systems.
The mark [6] stands for this setting: markedly decreased vs SEQ 11, variant of SEQ ID NO: 11.
Where [7] appears, read: markedly decreased vs SEQ 13, variant of SEQ ID NO: 13.
[8] abbreviates: markedly decreased vs SEQ 13, no remarkable neurite inhibition at 10 nM, variant of SEQ ID NO: 13.
Where [9] appears, read: as 87(2) plus 2'-OMe C9,U10,C11,G29-31, variant of SEQ ID NO: 87(2).

For some of these results: A negative result means that nothing was seen under these conditions. For some of these results: A weaker result is weaker than the reference pair of the same experiment. For some of these results: Where a protein sequence is shown, tags need not be part of it.

Regarding “GGGCACAUCCUGCGCGUAGUUUCCGUCUCCGUGCUGUUAUGUGC [SEQ ID NO: 121]”, in data set [1] (setting [6]), the binding result is “binds more weakly”. Regarding “GGGCACAUCCUGCUGCGAGUUUCCGUCUCGUGGCUGUUAUGUGC [SEQ ID NO: 122]”, the binding result in data set [1] (setting [6]) is reported as “binds more weakly”. As for “GGGCACAUCCUGCUGCGUAGUUCCGUCUCCGUGGCUGUUAUGUGC [SEQ ID NO: 130]”, the binding result in data set [1] (setting [6]) is “binds more weakly”. On to “GGGCACAUCCUGCUGCGUAGUUUCCGUCUCCGUGGCUGUAUGUGC [SEQ ID NO: 134]”, for which the binding result in data set [1] (setting [6]) was “binds more weakly”.

Regarding “GGGCACAUCCUGCUGCGUAGUUUCCUCUCCGUGGCUGUUAUGUGC [SEQ ID NO: 132]”, in data set [1] (setting [6]), the binding result is “binds more weakly”.

For the sequence “GGGCACAUCCUGCUGCGUAGUUUGUCUCCGUGGCUGUUAUGUGC [SEQ ID NO: 131]”, in data set [1] (markedly decreased vs SEQ 11, no remarkable neurite inhibition at 10 nM, variant of SEQ ID NO: 11), the binding result is “binds more weakly”. On to “GGGCACAUCCUGCUGCGUGUUUCCGUCCCGUGGCUGUUAUGUGC [SEQ ID NO: 126]”, for which the binding result in data set [1] (setting [6]) is reported as “binds more weakly”.

On to “GGGCACAUCCUGCUGCUAGUUUCCGUCUCGUGGCUGUUAUGUGC [SEQ ID NO: 125]”, for which, in data set [1] (setting [6]), the binding result is “binds more weakly”.

For “GGGCACAUCCUGCUGGUAGUUUCCGUCUCCUGGCUGUUAUGUGC [SEQ ID NO: 124]”, the binding result in data set [1] (setting [6]) is recorded as “binds more weakly”. Take “GGGCACAUCCUGUGCGUAGUUUCCGUCUCCGUGCUGUUAUGUGC [SEQ ID NO: 123]”: the binding result in data set [1] (setting [6]) is recorded as “binds more weakly”.

Turning to “GGGGCCUGCUGCGUAGUUUCCGUCUCCGUGGCUGUUCCCC [SEQ ID NO: 129]”, the binding result in data set [1] (setting [7]) is “binds more weakly”.

On to “GGGGUCCGCUGCGUAGUUUCCGUCUCCGUGGCGUUACCCC [SEQ ID NO: 139]”, for which the binding result in data set [1] (setting [7]) is “binds more weakly”.

In the case of “GGGGUCCGCUGCGUAGUUUCCGUCUCCGUGGCUGUACCCC [SEQ ID NO: 141]”, in data set [1] (setting [8]), the binding result was “binds more weakly”. With “GGGGUCCGCUGCGUAGUUUCCGUCUCCGUGGCUGUUACCCC [SEQ ID NO: 136]”, in data set [1] (setting [7]), the binding result was “binds more weakly”.

Regarding “GGGGUCCGCUGCGUAGUUUCCGUCUCCGUGGCUUUACCCC [SEQ ID NO: 140]”, the binding result in data set [1] (setting [7]) is “binds more weakly”. As for “GGGGUCCUCUGCGUAGUUUCCGUCUCCGUGGUGUUACCCC [SEQ ID NO: 127]”, in data set [1] (setting [8]), the binding result is reported as “binds more weakly”.

Take “GGGGUCCUGCUGCGUAGUUUCCGCUCCGUGGCUGUUACCCC [SEQ ID NO: 133]”: the binding result in data set [1] (setting [8]) was “binds more weakly”. On the same count and under the same terms, the entry for “GGGGUCCUGCUGCGUAUUUCCGUUCCGUGGCUGUUACCCC [SEQ ID NO: 128]” is “binds more weakly”. With “GGGGUCUGCUGCGUAGUUUCCGUCUCCGUGGCUGUACCCC [SEQ ID NO: 137]”, the binding result in data set [1] (setting [7]) is “binds more weakly”. “GGGGUCUGCUGCGUAGUUUCCGUCUCCGUGGCUGUUACCCC [SEQ ID NO: 135]”: the binding result in data set [1] (setting [8]) is given as “binds more weakly”. On to “GGGGUCUGCUGCGUAGUUUCCGUCUCCGUGGCUUUACCCC [SEQ ID NO: 138]”, for which the binding result in data set [1] (setting [7]) is given as “binds more weakly”.

As to “GGGUCCUGCUCAAGAGUUUCCGUCUCGUGGGCUGUUACCC [SEQ ID NO: 87(1)]”, the IC50 in data set [2] (2'-OMe G1-3,C38-40, other C/U 2'-F, G 2'-OH, dA, 5',3' idT, variant of SEQ ID NO: 87) is > 0.01 µM. For “GGGUCCUGCUCAAGAGUUUCCGUCUCGUGGGCUGUUACCC [SEQ ID NO: 87(4)]”, the IC50 in data set [2] (setting [9]) was > 0.01 µM; in data set [3] (setting [9]), > 0.3 µM.

Regarding “GGGUCCUGGAUAAGAGTUUCCGUCUCGUAUCCUGUUACCC [SEQ ID NO: 156]”, in data set [4] (as 82(1) except dT17, TF-1, variant of SEQ ID NO: 82(1)), the IC50 is > 1 µM. For “GGGUCCUGGAUAAGAGUUUCCGUCUCGUAUCCTGUUACCC [SEQ ID NO: 158]”, the IC50 in data set [4] (as 82(1) except dT33, TF-1, variant of SEQ ID NO: 82(1)) is > 1 µM.

As to “GGGUCCUGGAUAAGAGUUUCCGUCUCGUAUCCUGUUACCC [SEQ ID NO: 82(1)]”, the IC50 in data set [2] (2'-OMe G (G8,G34 2'-OH), dA, 2'-F C/U, 5',3' idT, variant of SEQ ID NO: 82) is > 0.01 µM. Regarding “GGGUCCUGGAUAAGAGUUUCCGUCUCGUAUCCUGUUACCC [SEQ ID NO: 82(15)]”, in data set [4] (as 82(1) except 2'-OMe U35, TF-1, variant of SEQ ID NO: 82(1)), the IC50 was > 1 µM. On to “GGGUCCUGGAUAAGAGUUUCCGUCUCGUAUCCUGUUACCC [SEQ ID NO: 82(16)]”, for which the IC50 in data set [4] (2'-F C and U except C38, 2'-OMe G1-3,G9,G14,G16,G22,G27,C38, 2'-OH G8,G34, 2'-H A, idT 5' and 3', TF-1 TrkB/p75 cells, variant of SEQ ID NO: 82) is > 1 µM. “GGGUCCUGGAUAAGAGUUUCCGUCUCGUAUCCUGUUACCC [SEQ ID NO: 82(17)]”: in data set [4] (as 82(1) except 2'-OMe C39, TF-1, variant of SEQ ID NO: 82(1)), the concentration for half-maximal inhibition (IC50) is > 1 µM. In the case of “GGGUCCUGGAUAAGAGUUUCCGUCUCGUAUCCUGUUACCC [SEQ ID NO: 82(18)]”, the IC50 in data set [4] (as 82(1) except 2'-OMe C40, TF-1, variant of SEQ ID NO: 82(1)) was > 1 µM. Regarding “GGGUCCUGGAUAAGAGUUUCCGUCUCGUAUCCUGUUACCC [SEQ ID NO: 82(20)]”, the IC50 was > 1 µM in data set [4] (as 82(1) except 2'-OMe U4,C6,U11,C21,U23,C26,U30,C32,U35,C38-40, TF-1, variant of SEQ ID NO: 82(1)) and > 0.03 µM in data set [3] (as 82(1) except 2'-OMe U4,C6,U11,C21,U23,C26,U30,C32,U35,C38-40, variant of SEQ ID NO: 82(1)).

With “GGGUCCUGGAUAAGAGUUUCCGUCUCGUAUCCUGUUACCC [SEQ ID NO: 82(21)]”, the IC50 in data set [4] (as 82(1) except 2'-OMe U4,C6,U11,C21,U23,U28,U30,C32,U35,C38-40, TF-1, variant of SEQ ID NO: 82(1)) is > 1 µM; in data set [3] (as 82(1) except 2'-OMe U4,C6,U11,C21,U23,U28,U30,C32,U35,C38-40, variant of SEQ ID NO: 82(1)) it was > 0.03 µM. On to “GGGUCCUGGAUAAGAGUUUCCGUCUCGUAUCCUGUUACCC [SEQ ID NO: 82(22)]”, for which the IC50 was > 1 µM in data set [4] (as 82(1) except 2'-OMe U4,C6,U11,C21,U23,C26,U28,U30,C32,U35,C38-40, TF-1, variant of SEQ ID NO: 82(1)) and > 0.03 µM in data set [3] (as 82(1) except 2'-OMe U4,C6,U11,C21,U23,C26,U28,U30,C32,U35,C38-40, variant of SEQ ID NO: 82(1)). For the sequence “GGGUCCUGGAUAAGAGUUUCCGUCUCGUAUCCUGUUACCC [SEQ ID NO: 82(23)]”, the IC50 in data set [4] (as 82(1) except 2'-OMe U4,C6,U11,C21,U23,C26,U30,C31,C32,U35,C38-40, TF-1, variant of SEQ ID NO: 82(1)) is > 1 µM; in data set [3] (as 82(1) except 2'-OMe U4,C6,U11,C21,U23,C26,U30,C31,C32,U35,C38-40, variant of SEQ ID NO: 82(1)) it was > 0.03 µM. With “GGGUCCUGGAUAAGAGUUUCCGUCUCGUAUCCUGUUACCC [SEQ ID NO: 82(24)]”, the half-maximal inhibitory concentration (IC50) in data set [4] (as 82(1) except 2'-OMe U4,C6,U11,C21,U23,U28,U30,C31,C32,U35,C38-40, TF-1, variant of SEQ ID NO: 82(1)) was > 1 µM; in data set [3] (as 82(1) except 2'-OMe U4,C6,U11,C21,U23,U28,U30,C31,C32,U35,C38-40, variant of SEQ ID NO: 82(1)), > 0.03 µM.

For “GGGUCCUGGAUAAGAGUUUCCGUCUCGUAUCCUGUUACCC [SEQ ID NO: 82(25)]”, in data set [4] (2'-F C5,U7,U17,U18,U19,C20,C24,U25,U33,U36, 2'-OH G8,G34, 2'-H A, 2'-OMe all other, idT 5' and 3', TF-1 TrkB/p75 cells, variant of SEQ ID NO: …), the IC50 was > 1 µM. With “GGGUCCUGGAUAAGAGUUUCCGUCUCGUAUCCUGUUACCC [SEQ ID NO: 82(26)]”, the IC50 in data set [4] (as 82(25) except 2'-OMe C20, TF-1, variant of SEQ ID NO: 82(25)) was > 1 µM; in data set [3] (as 82(25) except 2'-OMe C20, variant of SEQ ID NO: 82(25)), > 0.03 µM.

For “GGGUCCUGGAUAAGAGUUUCCGUCUCGUAUCCUGUUACCC [SEQ ID NO: 82(55)]”, in data set [4] (as 82(25) except 5' PEG80TS4 instead of idT, TF-1, variant of SEQ ID NO: 82(25)), the IC50 is > 1 µM. As to “GGGUCCUGUGGAAGAGUUUCCGUCUCGUCCACUGUUACCC [SEQ ID NO: 89(4)]”, the IC50 in data set [2] (as 89(2) plus 2'-OMe U9,G10,G11,C29,C30, variant of SEQ ID NO: 89(2)) is > 0.01 µM. Turning to “GGGUCCUGUUCAAGAGUUUCCGUCUCGUGAACUGUUACCC [SEQ ID NO: 88(1)]”, the IC50 in data set [2] (2'-OMe C38-40, other C/U 2'-F, G 2'-OH, dA, 5',3' idT, variant of SEQ ID NO: 88) was > 0.01 µM.

For “GGGUCCUGUUCAAGAGUUUCCGUCUCGUGAACUGUUACCC [SEQ ID NO: 88(4)]”, in data set [2] (as 88(3) plus 2'-OMe U9,U10,C11,G29, variant of SEQ ID NO: 88(3)), the IC50 was > 0.01 µM. With “GGGUCCUGUUCAAGAGUUUCCGUCUCGUGAACUGUUACCC [SEQ ID NO: 116]”, the binding result in data set [5] is on record as “no binding”.

(Values after patent US20140235701.)
